This data set in a line: Measurement of luminescence spectra of purified luciferase at various pHs. Type of data set: biochemical.

Where no unit stands, none is given here, and values compare only within one read-out.

B1: SP1 luciferase: luciferase of SEQ ID NO: 1 derived from Malaysian firefly Luciola sp1 (protein, listed as Luciola sp.)
chain: MNNMDDGEHIVVGPQPFYPVEEGSAGTQLLKYLKQYSKLGAIAFSNAHTKVDISYAEYLDTSVRLAQALINYGIPIDGRIALCSENCEEFYFPVLAGLYIGAGVAPTNEIYTLRELVHSLGISKPTIVFSSKKGLEKVITVQKTVTCIKTIVILDSKVDYQGYDCLETFIKKYLPAGFSVENFIPREVNRKEQVALVMNSSGSTGLPKGVQITHEGAVTRFSHARDPIYGNQVSPGTAILTIVPFHHGFGMFTNLGYLTCGYRIVMLTKFDEELFLKTLADYKCTSVILVPTLFAILSKSVLLEKYDLSNLVEIASGGAPLAKEVGEAVARRFNLPGIRQGYGLTETTSAIIITPEGDDKPGASGKIVPLFRAKVVDLDTQKTLGPNRRGEICVKGPMLMKGYVDDPVATSQIIDKDGWLHTGDIGYFDEDKHFFIVDRLKSLIKYKGYQVPPAELESVLLQHPDIFDAGVAGLPDPLAGELPGAVVVLEKGRHMTEQQVMDYVAGQVSNAKRLRGGVRFVDEVPKGLTGKIDSKAIREILKSPKAKM
In the case of B1, the maximum luminescent wavelength is, setting by setting: (pH 6.0) around 609 nm; (pH 6.5) around 606 nm; (pH 7.0) around 598 nm; (pH 7.5) “approximately 587 nm”; (pH 8) “approximately 580 nm”. In addition, for the setting “pH 6.0-8.0 tested”, the “pH at which the maximum luminescent intensity was confirmed” value was 7.5.

The values are drawn from US8722376B2, “Firefly luciferase” (Olympus Corporation, priority 2011, dated 2014).
